Data: US20070218502A1
Results are given in words; binding and its absence hold for the method and conditions named. Some results given as binding are weak or reduced against the parent protein; the word gives no strength.

The chains behind the UniProt entries cited, without tags or fusion partners. Where a name states a change or a piece, a line headed by the entry shows the natural chain unless it says otherwise.
UniProt P60953: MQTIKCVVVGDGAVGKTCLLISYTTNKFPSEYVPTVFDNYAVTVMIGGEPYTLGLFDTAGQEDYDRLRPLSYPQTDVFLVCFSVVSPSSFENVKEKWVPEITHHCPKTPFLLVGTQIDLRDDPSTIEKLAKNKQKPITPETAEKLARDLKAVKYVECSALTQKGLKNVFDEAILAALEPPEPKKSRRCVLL
UniProt P42768: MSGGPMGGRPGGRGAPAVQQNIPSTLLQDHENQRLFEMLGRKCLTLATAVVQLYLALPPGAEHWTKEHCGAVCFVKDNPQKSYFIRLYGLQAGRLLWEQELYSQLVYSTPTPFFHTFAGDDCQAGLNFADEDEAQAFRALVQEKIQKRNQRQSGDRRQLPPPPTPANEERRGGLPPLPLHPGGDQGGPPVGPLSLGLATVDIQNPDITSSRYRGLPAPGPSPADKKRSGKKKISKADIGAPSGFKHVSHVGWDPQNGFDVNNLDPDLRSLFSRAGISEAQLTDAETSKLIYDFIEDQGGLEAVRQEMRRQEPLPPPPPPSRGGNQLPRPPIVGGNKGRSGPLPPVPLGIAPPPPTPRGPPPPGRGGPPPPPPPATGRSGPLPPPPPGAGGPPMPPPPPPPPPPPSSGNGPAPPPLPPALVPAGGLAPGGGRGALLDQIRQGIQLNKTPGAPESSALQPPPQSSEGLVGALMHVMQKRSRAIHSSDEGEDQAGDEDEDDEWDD

Target: cdc42-GTPγS (recombinant 6His-tagged cdc42 loaded with GTPγS) (UniProt P60953)
Assay: fluorescence of dye-labeled CBD in solution

For “mero-CBD I233C conjugate (Cdc42-binding fragment of human WASP, amino acids 201 to 321, I233 mutated to cysteine, labeled with merocyanine dye) (from UniProt P42768 201-321)”, the binding was “binds”.
For “mero-CBD D264C conjugate (Cdc42-binding fragment of human WASP, amino acids 201 to 321, D264 mutated to cysteine, labeled with merocyanine dye) (from UniProt P42768 201-321)”, the binding was “binds”.
